The experiment has as its target FLAG-tagged IniRMtb (Rv0339c, iniBAC Regulator of M. tuberculosis) (M. tuberculosis) (UniProt O33269). Put plainly: cross-linking.

Protein sequences, listed by entry. Tags and fused reporters are not part of them.
UniProt O33269: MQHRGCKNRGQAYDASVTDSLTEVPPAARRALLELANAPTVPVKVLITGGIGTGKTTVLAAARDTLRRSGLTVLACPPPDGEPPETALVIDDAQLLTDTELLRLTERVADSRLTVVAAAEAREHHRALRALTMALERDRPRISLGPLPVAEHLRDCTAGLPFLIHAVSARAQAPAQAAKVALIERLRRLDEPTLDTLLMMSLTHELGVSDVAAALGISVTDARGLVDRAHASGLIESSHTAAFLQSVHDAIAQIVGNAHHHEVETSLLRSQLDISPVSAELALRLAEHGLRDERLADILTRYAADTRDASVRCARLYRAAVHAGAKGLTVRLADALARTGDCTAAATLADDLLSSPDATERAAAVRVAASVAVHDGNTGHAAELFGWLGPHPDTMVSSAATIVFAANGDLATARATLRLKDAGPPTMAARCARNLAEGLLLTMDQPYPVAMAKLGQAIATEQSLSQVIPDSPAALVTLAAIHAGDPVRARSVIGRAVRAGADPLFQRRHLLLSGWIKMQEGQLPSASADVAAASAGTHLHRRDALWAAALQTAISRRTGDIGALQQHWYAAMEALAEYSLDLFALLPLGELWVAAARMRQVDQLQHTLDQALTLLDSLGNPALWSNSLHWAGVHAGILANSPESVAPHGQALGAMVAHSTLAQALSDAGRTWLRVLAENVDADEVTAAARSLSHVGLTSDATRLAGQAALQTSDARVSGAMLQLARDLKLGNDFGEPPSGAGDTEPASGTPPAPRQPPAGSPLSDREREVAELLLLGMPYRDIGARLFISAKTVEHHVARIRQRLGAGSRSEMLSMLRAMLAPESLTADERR

No constants are given. Whether binding was seen depends on the method and setting. Binding seen in cells or lysates may run through a third protein. Some results given as binding are weak or reduced against the parent protein; the word gives no strength.

Regarding “FLAG-tagged IniRMtb (Rv0339c, iniBAC Regulator of M. tuberculosis) (from UniProt O33269 1-832)”, the binding result is “binds”.

The record behind these values is publication PMC5760070.
